# Laboratory results: PubChem BioAssay AID330 (DTP/NCI, 2004)
# The list does not hold the whole screen: it gathers tests that were run many times, whatever their T/C, doses with no T/C, and many T/C values between a quarter and a half above the control. Further doses and runs are listed elsewhere. T/C: endpoint of the treated group in % of that of the vehicle group. For survival time, this PubChem deposit counts one and a half times the control or more as active, and values a quarter to a half above the control carry no call in these data; other NCI protocols may use other cut-offs. Schedules are NCI's codes, taken here to give the interval after Q, in days (D) or hours (H), and the number of doses after X. Some T/C values are followed by the survivors on the day toxicity was checked, most often the fifth; where none is given, no animal had died by that day. Some doses were run more than once; the values are given in rising order.
# System: P388 leukemia ip, CD2F1 mice, survival T/C
# Experiment: NCI In Vivo Anticancer Drug Screen. Data for tumor model P388 Leukemia (intraperitoneal) in CD2F1 (CDF1) mice
# Conditions: T/C endpoint: median survival time, higher T/C = longer survival
structure (smiles),measurement,setting,value
O=NN(CCCl)C(=O)NCCCl,T/C,"dose: 1.88 mg/kg/injection, schedule: Q04DX003 (ip), vehicle: saline",145 % of control
same,T/C,"dose: 2.0 mg/kg/injection, schedule: Q01DX001 (ip), vehicle: saline with Tween-80",125 % of control
same,T/C,"dose: 2.0 mg/kg/injection, schedule: Q01DX005 (ip), vehicle: saline + alcohol",130 % of control
same,T/C,"dose: 2.0 mg/kg/injection, schedule: Q01DX009 (ip), vehicle: Klucel (hydroxypropylcellulose) (HPC)","125, 161, 162, 166 % of control"
same,T/C,"dose: 2.0 mg/kg/injection, schedule: Q01DX009 (ip), vehicle: saline + alcohol, evaluated on day 30","161, 164, 167, 173, 194 % of control"
same,T/C,"dose: 2.0 mg/kg/injection, schedule: Q01DX009 (ip), vehicle: saline + alcohol, evaluated on day 35",148 % of control
same,T/C,"dose: 2.0 mg/kg/injection, schedule: Q01DX009 (ip), vehicle: saline + alcohol, evaluated on day 45",177 % of control
same,T/C,"dose: 2.0 mg/kg/injection, schedule: Q01DX009 (ip), vehicle: saline, evaluated on day 30","157, 163 [5 of 6 alive], 167, 172, 178, 179, 182, 186, 187, 210, 271, 274 % of control"
same,T/C,"dose: 2.0 mg/kg/injection, schedule: Q01DX009 (ip), vehicle: saline, evaluated on day 60","145, 159, 160, 162 % of control"
same,T/C,"dose: 2.5 mg/kg/injection, schedule: Q04DX003 (ip), vehicle: saline + alcohol",148 % of control
same,T/C,"dose: 3.3 mg/kg/injection, schedule: Q01DX009 (ip), vehicle: Klucel (hydroxypropylcellulose) (HPC)",133 % of control
same,T/C,"dose: 3.3 mg/kg/injection, schedule: Q01DX009 (ip), vehicle: saline + alcohol",126 % of control
same,T/C,"dose: 3.75 mg/kg/injection, schedule: Q01DX001 (iv), vehicle: saline + alcohol",125 % of control
same,T/C,"dose: 3.89 mg/kg/injection, schedule: Q04DX002 (ip), vehicle: saline + alcohol",148 % of control
same,T/C,"dose: 4.0 mg/kg/injection, schedule: Q01DX001 (ip), vehicle: Klucel (hydroxypropylcellulose) (HPC)",142 % of control
same,T/C,"dose: 4.0 mg/kg/injection, schedule: Q01DX001 (ip), vehicle: saline + alcohol",130 % of control
same,T/C,"dose: 4.0 mg/kg/injection, schedule: Q01DX001 (ip), vehicle: saline with Tween-80, evaluated on day 5",153 and 164 % of control
same,T/C,"dose: 4.0 mg/kg/injection, schedule: Q01DX001 (ip), vehicle: saline with Tween-80, evaluated on day 30",144 % of control
same,T/C,"dose: 4.0 mg/kg/injection, schedule: Q01DX001 (ip), vehicle: saline with Tween-80, evaluated on day 60",145 % of control
same,T/C,"dose: 4.0 mg/kg/injection, schedule: Q01DX001 (ip), vehicle: suspension in saline",132 % of control
same,T/C,"dose: 4.0 mg/kg/injection, schedule: Q01DX001 (ip), vehicle: water",147 % of control
same,T/C,"dose: 4.0 mg/kg/injection, schedule: Q01DX009 (ip), vehicle: Klucel (hydroxypropylcellulose) (HPC)","157 [5 of 6 alive], 193, 209, 211 % of control"
same,T/C,"dose: 4.0 mg/kg/injection, schedule: Q01DX009 (ip), vehicle: saline + alcohol, evaluated on day 30","184, 201, 214, 230, 252 % of control"
same,T/C,"dose: 4.0 mg/kg/injection, schedule: Q01DX009 (ip), vehicle: saline + alcohol, evaluated on day 35",188 % of control
same,T/C,"dose: 4.0 mg/kg/injection, schedule: Q01DX009 (ip), vehicle: saline + alcohol, evaluated on day 45",231 % of control
same,T/C,"dose: 4.0 mg/kg/injection, schedule: Q01DX009 (ip), vehicle: saline, evaluated on day 30","165, 193, 221, 232, 239, 246, 250, 252, 266, 290, 315 [5 of 6 alive], 322 % of control"
same,T/C,"dose: 4.0 mg/kg/injection, schedule: Q01DX009 (ip), vehicle: saline, evaluated on day 60","209, 220, 252, 301 % of control"
same,T/C,"dose: 5.0 mg/kg/injection, schedule: Q01DX001 (ip), vehicle: saline + alcohol",130 and 132 % of control
same,T/C,"dose: 7.5 mg/kg/injection, schedule: Q01DX005 (ip), vehicle: saline + alcohol, evaluated on day 30",222 % of control
